Results from article PMC3077385.
These are yes or no findings as the source states them, for the method shown. Binding calls can cover weak binding; strength is not graded here.

By UniProt entry, the sequences of proteins in these tests, tags left out. Where a name states a change or a piece, a line headed by the entry shows the natural chain unless it says otherwise.
UniProt P93002: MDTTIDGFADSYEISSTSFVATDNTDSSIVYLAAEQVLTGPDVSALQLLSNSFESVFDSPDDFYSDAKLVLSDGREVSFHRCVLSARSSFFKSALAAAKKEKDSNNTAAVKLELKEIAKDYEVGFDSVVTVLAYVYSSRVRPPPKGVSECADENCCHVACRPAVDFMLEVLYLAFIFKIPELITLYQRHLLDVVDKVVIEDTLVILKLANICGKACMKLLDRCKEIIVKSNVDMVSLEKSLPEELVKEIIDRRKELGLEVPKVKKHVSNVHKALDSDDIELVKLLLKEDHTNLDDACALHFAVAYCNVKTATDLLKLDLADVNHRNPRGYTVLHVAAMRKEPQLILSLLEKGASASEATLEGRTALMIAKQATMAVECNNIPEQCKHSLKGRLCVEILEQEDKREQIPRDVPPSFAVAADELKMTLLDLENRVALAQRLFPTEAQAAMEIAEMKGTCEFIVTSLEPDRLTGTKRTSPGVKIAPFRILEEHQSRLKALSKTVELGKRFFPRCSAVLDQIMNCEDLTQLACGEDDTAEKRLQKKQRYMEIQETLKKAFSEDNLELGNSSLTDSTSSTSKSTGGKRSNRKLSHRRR
UniProt Q5ZEF1: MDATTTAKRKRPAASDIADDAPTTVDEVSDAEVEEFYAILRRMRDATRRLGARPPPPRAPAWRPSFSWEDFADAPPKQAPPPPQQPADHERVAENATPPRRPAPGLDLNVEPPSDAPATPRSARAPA

Target: Arabidopsis NPR1 (Arabidopsis) (UniProt P93002)
Experiment: two-hybrid; Gal4 two-hybrid screen of a rice cDNA library (HybriZAP, seven-week-old IRBB21 leaf mRNA, in Y187) by mating with baits in HF7c; selection on SD -His -Trp -Leu + 2 mM 3-AT; prey plasmids re-transformed into AH109 and confirmed on -His -Leu -Trp + 2 mM 3-AT and on -Ade -Leu -Trp

binding: binds
Substance: NRR (from UniProt Q5ZEF1)
